Tested on: NMDA antagonist toxic side effects
Experiment: Safener drugs against NMDA antagonist toxic side effects (earlier findings)
Format: in vivo
Details: Applicants' discovery, no data given

SMILES: CN1[C@@H]2C[C@@H](OC(=O)[C@H](CO)c3ccccc3)C[C@H]1[C@@H]1O[C@@H]12 [scopolamine]
- prevention of NMDA antagonist toxic side effects: prevent NMDA antagonists from causing toxic side effects

Reference: patent US5902815A, “Use of 5HT-2A serotonin agonists to prevent adverse effects of NMDA receptor hypofunction” (priority 1996, dated 1999)
